Assay results taken from PubChem BioAssay AID2685 (National Center for Advancing Translational Sciences (NCATS), 2010).
Screen size: about 320,000 compounds; about 2,100 (0.66%) were called active. The shares of active, inactive and inconclusive entries below differ from those in the screen. Calls follow the shape of the dose curve; as a rule, active = well fitted inhibition curve with a large enough effect in the signal ratio, with a control signal flat (not every such curve was filed as active); inconclusive = small, poorly fitted or top-dose-only effect, or effect the other way, or a change in a side signal; inactive = flat fitted curve, though single readings scatter; the % refers to the signal ratio. A potency beside an inconclusive call is a rough fit, not a confirmed value.

Assay: qHTS Assay for Lipid Storage Modulators in Drosophila S3 Cells
Settings: BODIPY lipid droplet fluorescence, 18-24 h, cells fed with added oleic acid; lipid storage change, negative = inhibition: at 46.1 µM (top of the series) unless noted
Outline: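 Laser-scanning cytometry quantifies lipid droplet accumulation (500–530 nm total intensity; droplet/cell object ratio) in oleic acid-fed (400 uM added) Drosophila S3 cells treated with a concentration series. 20 uM Triacsin C defined 100% inhibition.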
% is scaled to controls: 0 for no effect and ±100 for the full control effect; potency is read from the fitted curve at half-maximal effect.

**Q.** For `COc1ccc(N2CCN(C3CCN(S(=O)(=O)c4ccc(F)cc4)CC3)CC2)cc1`, which Potency is on record?
**A.** Its Potency is inconclusive: 2.59 µM [falling, single point].

**Q.** For `CCCCOc1nc2c(c(=O)n(C)c(=O)n2C)n1C`, which lipid storage change, negative = inhibition is on record?
**A.** The lipid storage change, negative = inhibition was inconclusive: -12.1%.

**Q.** For `CCOC(=O)N1CCc2c(sc(N)c2C#N)C1`, which lipid storage change, negative = inhibition is on record?
**A.** The lipid storage change, negative = inhibition was inconclusive: 16%.

**Q.** For `COCCNC(=O)C(OC(=O)c1ccco1)c1ccccc1Cl` (centres undefined), which lipid storage change, negative = inhibition is on record?
**A.** Its lipid storage change, negative = inhibition is inconclusive: -9.55%.

**Q.** With `c1ccc(-c2nc(-c3ccco3)cs2)nc1` as the molecule, how does the lipid storage change, negative = inhibition read?
**A.** Its lipid storage change, negative = inhibition is inconclusive: 11.9%.

**Q.** For `CCOc1cc(N2CCOCC2)c(OCC)cc1NC(=O)CN1C(=O)N(C)C2(CCCCC2)C1=O`, which lipid storage change, negative = inhibition is on record?
**A.** Its lipid storage change, negative = inhibition is inconclusive: -7.36%.

**Q.** With `CCN(CC)S(=O)(=O)c1ccc(N2CCN(C)CC2)c(NC(=O)Nc2ccccc2F)c1` as the molecule, how does the Potency read?
**A.** Its Potency is inconclusive: 18.4 µM [activator, single point].

**Q.** For `CC(C)(C)OC(=O)N1CCC(c2c(C(=O)N3CCN(C(=O)c4ccco4)CC3)cnn2-c2ccc(F)cc2F)CC1`, which Potency is on record?
**A.** Its Potency is inconclusive: 29.1 µM [falling, single point].

**Q.** For `CC1(C)O[C@@H]2[C@H](O1)[C@@H](CO)O[C@H]2n1c(N2CCCCC2)nc2c(N)ncnc21`, which lipid storage change, negative = inhibition is on record?
**A.** Its lipid storage change, negative = inhibition is inconclusive: 43.2%.

**Q.** With `COc1ccc(Cl)cc1NS(=O)(=O)c1cccc(C(=O)N2CC(C)OC(C)C2)c1` (centres undefined) as the molecule, how does the Potency read?
**A.** Its Potency is inconclusive: 29.1 µM [falling, single point].

**Q.** Which Potency does the source give for `COc1cc(/C=C2/C(=N)N3OC(C)=CC3=NC2=O)ccc1OCCOc1ccc(C)cc1` here?
**A.** Its Potency is inconclusive: 0.0052 µM [activator, full curve, poor fit].

**Q.** Which Potency does the source give for `COc1ccc(CC(=O)NNc2ncnc3c2cnn3-c2ccccc2)cc1` here?
**A.** The Potency was inconclusive: 0.58 µM [activator, partial curve].

**Q.** With `COc1ccccc1N(CC(=O)NCCSCc1ccco1)S(=O)(=O)c1ccccc1` as the molecule, how does the lipid storage change, negative = inhibition read?
**A.** Its lipid storage change, negative = inhibition is inconclusive: 71.1%.

**Q.** For `Cn1c(=O)c2ncn(CC(=O)Nc3ccc4c5c(cccc35)CC4)c2n(C)c1=O`, which Potency is on record?
**A.** Its Potency is inconclusive: 0.146 µM [activator, full curve, poor fit].

**Q.** Which Potency does the source give for `COC(=O)c1ccc(Cn2nnc3c(=O)[nH]c(C4CCCN(S(=O)(=O)c5ccccc5Cl)C4)nc32)cc1` (centres undefined) here?
**A.** Its Potency is inconclusive: 0.58 µM [activator, single point].

**Q.** With `COc1cccc(/C=C2\SC(=S)N(c3cccnc3)C2=O)c1OC` as the molecule, how does the lipid storage change, negative = inhibition read?
**A.** The lipid storage change, negative = inhibition was “inactive”.

**Q.** Which lipid storage change, negative = inhibition does the source give for `Cc1ccc2nc(SC(C)C(=O)NCc3ccco3)[nH]c2c1` (centres undefined) here?
**A.** Its lipid storage change, negative = inhibition is inconclusive: 29.9%.

**Q.** For `O=C(NCCSc1ccccc1)c1ccc(CN2CCOCC2)cc1`, which lipid storage change, negative = inhibition is on record?
**A.** The lipid storage change, negative = inhibition was inconclusive: -5.6%.

**Q.** For `COC(=O)C1CCN(CCCOc2ccc(CN3CCN(c4ccc([N+](=O)[O-])cc4)CC3)cc2)CC1`, which lipid storage change, negative = inhibition is on record?
**A.** Its lipid storage change, negative = inhibition is inconclusive: -20.6%.
